Measurements from the supplement of paper PMC12823440, “Inhibitors supercharge kinase turnover through native proteolytic circuits” (Nature, 2025).
Counter-ions that a name gives are not always drawn. The list shows a part of the results. The calls rarely recur for the same compound in another form.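 Kinases were expressed as nanoluciferase fusions in K562 cells and luminescence was read every 4 h between 2 and 18 h as percent of control, DMSO set to 100% and a positive control to 0%. A time point counts as decreased when the signal drops significantly (2 sigma). The hit call is the authors' own, does not follow from the count of time points alone, and its rule is not shown.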

Sequences of proteins named here, by UniProt entry; tags and fusion partners are left off. A change or cut given only in a name is not applied to a line headed by its entry.
UniProt Q8IWU2: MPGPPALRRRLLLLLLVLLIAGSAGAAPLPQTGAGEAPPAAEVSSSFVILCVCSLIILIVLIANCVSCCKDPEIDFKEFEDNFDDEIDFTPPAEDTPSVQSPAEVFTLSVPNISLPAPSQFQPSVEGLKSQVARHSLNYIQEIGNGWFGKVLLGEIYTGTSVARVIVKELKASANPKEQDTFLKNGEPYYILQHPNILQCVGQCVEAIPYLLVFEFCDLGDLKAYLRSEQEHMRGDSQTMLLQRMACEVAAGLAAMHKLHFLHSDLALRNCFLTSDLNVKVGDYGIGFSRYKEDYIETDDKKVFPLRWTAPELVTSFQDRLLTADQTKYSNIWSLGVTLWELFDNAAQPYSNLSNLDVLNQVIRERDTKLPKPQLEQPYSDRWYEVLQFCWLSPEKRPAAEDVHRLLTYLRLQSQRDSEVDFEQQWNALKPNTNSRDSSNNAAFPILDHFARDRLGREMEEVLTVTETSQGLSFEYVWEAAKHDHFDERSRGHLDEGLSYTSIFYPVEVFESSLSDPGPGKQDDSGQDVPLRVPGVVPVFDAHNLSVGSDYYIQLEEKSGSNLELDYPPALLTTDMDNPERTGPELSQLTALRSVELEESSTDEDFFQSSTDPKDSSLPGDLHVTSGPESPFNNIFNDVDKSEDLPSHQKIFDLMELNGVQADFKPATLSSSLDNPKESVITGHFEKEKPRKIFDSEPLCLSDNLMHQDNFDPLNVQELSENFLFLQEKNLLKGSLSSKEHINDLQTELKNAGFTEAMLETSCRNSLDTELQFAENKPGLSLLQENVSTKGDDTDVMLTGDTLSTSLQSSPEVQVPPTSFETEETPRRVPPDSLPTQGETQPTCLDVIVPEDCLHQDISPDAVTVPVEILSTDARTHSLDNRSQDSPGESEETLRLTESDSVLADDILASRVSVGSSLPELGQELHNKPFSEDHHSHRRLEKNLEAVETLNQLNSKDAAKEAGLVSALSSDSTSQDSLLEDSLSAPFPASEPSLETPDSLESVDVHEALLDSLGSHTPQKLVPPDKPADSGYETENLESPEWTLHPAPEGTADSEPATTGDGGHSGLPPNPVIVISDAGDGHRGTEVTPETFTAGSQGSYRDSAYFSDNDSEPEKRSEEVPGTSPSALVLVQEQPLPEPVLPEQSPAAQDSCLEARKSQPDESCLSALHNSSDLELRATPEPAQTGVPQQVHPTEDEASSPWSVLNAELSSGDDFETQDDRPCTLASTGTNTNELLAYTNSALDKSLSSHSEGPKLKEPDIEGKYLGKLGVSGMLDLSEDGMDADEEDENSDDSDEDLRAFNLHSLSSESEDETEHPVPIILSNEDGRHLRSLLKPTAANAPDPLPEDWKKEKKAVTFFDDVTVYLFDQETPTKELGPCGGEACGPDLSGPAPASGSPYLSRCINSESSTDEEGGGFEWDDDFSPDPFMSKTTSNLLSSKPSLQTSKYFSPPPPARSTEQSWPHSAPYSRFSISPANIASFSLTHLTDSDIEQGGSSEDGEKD
UniProt P07948: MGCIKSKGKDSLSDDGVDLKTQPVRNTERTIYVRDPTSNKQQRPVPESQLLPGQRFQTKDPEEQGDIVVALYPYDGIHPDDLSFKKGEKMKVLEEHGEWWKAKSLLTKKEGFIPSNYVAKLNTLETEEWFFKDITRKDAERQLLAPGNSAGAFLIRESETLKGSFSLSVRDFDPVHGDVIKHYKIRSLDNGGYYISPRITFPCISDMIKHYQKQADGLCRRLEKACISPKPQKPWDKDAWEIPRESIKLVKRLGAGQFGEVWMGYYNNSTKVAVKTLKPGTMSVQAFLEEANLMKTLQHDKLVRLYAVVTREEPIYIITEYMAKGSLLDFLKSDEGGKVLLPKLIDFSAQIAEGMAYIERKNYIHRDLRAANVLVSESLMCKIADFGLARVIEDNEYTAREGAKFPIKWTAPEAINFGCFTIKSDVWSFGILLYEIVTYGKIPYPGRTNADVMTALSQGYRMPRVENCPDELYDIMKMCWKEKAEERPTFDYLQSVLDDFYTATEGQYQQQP
UniProt Q12851: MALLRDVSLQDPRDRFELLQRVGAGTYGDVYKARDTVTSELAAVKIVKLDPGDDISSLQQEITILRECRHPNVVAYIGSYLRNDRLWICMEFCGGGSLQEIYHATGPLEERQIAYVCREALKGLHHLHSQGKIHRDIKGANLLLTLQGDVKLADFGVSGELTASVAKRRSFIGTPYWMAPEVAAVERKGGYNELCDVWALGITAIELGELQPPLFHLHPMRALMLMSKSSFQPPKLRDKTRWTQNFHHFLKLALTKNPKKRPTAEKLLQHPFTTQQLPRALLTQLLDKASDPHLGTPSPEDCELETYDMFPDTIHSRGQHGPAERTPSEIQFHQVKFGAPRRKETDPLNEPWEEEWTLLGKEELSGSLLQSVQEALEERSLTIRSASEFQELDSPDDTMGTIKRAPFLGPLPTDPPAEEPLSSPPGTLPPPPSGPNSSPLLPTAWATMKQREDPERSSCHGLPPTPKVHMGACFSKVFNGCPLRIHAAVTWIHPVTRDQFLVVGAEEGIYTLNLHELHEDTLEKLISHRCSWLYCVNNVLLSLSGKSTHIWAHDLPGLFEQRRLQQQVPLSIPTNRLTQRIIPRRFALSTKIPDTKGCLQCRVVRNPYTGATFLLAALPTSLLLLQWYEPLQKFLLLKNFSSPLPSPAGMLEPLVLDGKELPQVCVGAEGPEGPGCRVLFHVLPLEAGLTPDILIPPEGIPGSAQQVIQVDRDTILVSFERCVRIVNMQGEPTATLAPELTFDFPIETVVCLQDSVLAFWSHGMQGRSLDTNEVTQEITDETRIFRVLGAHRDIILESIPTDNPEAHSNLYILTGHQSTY
UniProt P28482, whole entry: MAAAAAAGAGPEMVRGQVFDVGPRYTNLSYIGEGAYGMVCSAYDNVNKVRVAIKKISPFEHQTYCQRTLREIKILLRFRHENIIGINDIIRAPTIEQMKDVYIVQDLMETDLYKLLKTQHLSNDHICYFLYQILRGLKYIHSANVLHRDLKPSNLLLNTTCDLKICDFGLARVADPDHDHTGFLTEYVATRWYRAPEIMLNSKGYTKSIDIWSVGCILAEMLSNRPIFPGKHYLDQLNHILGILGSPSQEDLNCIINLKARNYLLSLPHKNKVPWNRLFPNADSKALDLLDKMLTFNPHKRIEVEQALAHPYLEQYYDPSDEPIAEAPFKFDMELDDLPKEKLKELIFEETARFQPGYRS
UniProt P31152, whole entry: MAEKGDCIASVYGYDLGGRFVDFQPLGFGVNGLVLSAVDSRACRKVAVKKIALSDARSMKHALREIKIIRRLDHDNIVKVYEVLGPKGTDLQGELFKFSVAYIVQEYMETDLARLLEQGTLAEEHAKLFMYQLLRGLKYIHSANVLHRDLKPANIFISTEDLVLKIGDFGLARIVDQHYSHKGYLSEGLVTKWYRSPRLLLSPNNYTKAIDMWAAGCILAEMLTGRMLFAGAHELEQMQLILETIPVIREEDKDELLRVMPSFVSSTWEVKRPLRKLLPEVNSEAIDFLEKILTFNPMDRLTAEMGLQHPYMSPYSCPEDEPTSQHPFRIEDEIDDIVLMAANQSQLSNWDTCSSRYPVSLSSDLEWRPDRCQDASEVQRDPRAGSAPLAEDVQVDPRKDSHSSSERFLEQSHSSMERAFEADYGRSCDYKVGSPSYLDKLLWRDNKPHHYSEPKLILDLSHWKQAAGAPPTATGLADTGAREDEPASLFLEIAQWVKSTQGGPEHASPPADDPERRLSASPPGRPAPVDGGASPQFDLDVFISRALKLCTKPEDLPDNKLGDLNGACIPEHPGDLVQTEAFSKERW
UniProt P49137, whole entry, looked up: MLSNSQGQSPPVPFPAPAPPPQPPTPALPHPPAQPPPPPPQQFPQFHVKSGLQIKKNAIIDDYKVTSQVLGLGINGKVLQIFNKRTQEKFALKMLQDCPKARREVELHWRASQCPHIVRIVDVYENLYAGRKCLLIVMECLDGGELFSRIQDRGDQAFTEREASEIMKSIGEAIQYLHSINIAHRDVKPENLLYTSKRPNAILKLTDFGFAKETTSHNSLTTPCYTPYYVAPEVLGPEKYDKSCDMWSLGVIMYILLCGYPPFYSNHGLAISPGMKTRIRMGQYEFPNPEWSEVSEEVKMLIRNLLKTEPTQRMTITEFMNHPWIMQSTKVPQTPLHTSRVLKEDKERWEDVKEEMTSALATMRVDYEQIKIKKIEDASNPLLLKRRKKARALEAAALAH
UniProt Q9BUB5: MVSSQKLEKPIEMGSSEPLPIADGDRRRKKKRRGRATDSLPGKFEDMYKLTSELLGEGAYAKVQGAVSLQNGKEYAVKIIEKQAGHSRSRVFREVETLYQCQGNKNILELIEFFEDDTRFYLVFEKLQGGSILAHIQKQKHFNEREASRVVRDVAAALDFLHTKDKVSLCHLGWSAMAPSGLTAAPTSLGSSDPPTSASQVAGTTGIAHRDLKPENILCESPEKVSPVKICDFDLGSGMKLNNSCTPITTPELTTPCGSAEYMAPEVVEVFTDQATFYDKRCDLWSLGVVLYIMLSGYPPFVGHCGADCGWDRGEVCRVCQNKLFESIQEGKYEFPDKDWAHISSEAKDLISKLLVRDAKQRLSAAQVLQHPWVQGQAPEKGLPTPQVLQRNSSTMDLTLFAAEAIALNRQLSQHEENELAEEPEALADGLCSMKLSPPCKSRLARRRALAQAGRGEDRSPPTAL
UniProt Q16620, whole entry, looked up: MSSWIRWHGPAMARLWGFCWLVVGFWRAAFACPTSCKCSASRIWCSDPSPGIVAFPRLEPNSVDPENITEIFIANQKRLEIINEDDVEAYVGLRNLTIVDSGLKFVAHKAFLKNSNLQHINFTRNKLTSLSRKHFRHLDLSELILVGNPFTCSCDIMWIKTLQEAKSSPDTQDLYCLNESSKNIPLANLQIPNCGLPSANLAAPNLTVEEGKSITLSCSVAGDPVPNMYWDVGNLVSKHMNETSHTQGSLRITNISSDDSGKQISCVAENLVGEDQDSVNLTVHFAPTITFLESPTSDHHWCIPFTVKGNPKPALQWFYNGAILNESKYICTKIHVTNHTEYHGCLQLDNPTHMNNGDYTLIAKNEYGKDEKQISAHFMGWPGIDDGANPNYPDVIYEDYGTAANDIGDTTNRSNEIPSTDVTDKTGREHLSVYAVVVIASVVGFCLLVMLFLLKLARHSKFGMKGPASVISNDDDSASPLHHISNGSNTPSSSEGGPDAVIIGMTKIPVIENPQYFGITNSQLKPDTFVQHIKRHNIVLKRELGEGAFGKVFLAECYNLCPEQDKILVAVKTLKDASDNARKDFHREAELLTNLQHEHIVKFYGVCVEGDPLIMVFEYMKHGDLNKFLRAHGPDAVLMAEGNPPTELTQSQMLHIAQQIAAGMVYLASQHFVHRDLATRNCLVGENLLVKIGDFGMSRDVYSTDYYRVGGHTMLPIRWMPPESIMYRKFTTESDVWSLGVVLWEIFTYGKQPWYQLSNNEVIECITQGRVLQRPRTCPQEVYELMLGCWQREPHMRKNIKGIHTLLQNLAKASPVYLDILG

How the values were obtained:
Experiment in all cases: number of time points (of 5) at which kinase-Nluc abundance scored as decreased, DMSO-normalised (count); higher = more persistent destabilization
Details in all cases: K562; 2-18 h
LMTK2 = LMTK2 (UniProt Q8IWU2)
LYN = LYN (UniProt P07948)
MAP2K1 = MAP2K1 (UniProt Q02750)
MAP2K2 = MAP2K2 (UniProt P36507)
MAP4K2 = MAP4K2 (UniProt Q12851)
MAPK1 = MAPK1 (UniProt P28482)
MAPK4 = MAPK4 (UniProt P31152)
MAPKAPK2 = MAPKAPK2 (UniProt P49137)
MKNK1 = MKNK1 (UniProt Q9BUB5)
NTRK2 = NTRK2 (UniProt Q16620)

Measured: number of time points

COC(=O)/C=C/c1ccccc1 [Methyl cinnamate] (10 µM)
0: all assays above

COc1cc(-c2cc(OP(=O)(O)O)cc(-c3cc(OC)c(OC)c(OC)c3)c2)cc(OC)c1OC [Stafia-1] (10 µM)
0: all assays above

Cc1cc(-n2c(=O)ccc3c[nH]c4nccc-4c32)ccc1F (10 µM)
0: all assays above

O=c1c2c([nH]n1-c1nc3ccccc3s1)CCCC2 (10 µM)
0: all assays above

Cc1cc(C)cc(NC(N)=Nc2ccccc2C(F)(F)F)c1 (10 µM)
0: all assays above

CC(C)=CC[C@@H](O)C1=CC(=O)c2c(O)ccc(O)c2C1=O [Shikonin] (10 µM)
0: all assays above

COc1cc(N2CCC(N3CCN(C)CC3)CC2)ccc1Nc1ncc(Cl)c(-c2c[nH]c3ccccc23)n1 (2.5 µM)
0: all assays above

O=C1Nc2ccc(I)cc2/C1=C/c1cc(Br)c(O)c(Br)c1 (10 µM)
3: MAP2K2
1: LYN | MAPK1 | MAPK4
0: all other assays above

Nc1nc(NCCNc2ncc(-n3ccnc3)c(-c3ccc(Cl)cc3Cl)n2)ccc1[N+](=O)[O-] (2.5 µM)
3: NTRK2
1: LMTK2
0: all other assays above

Nc1nc2c(nc(Br)n2[C@@H]2O[C@@H]3COP(=O)(O)O[C@H]3[C@H]2O)c(=O)[nH]1 [8-Bromo-cGMP (sodium)] (10 µM)
0: all assays above

Cc1ccc(NC(=O)Nc2cc(C(F)(F)F)ccc2F)cc1Nc1ccc2c(c1)NC(=O)/C2=C\c1ccc[nH]1 (2.5 µM)
1: NTRK2
0: all other assays above

Fc1ccc2[nH]ccc2c1-c1nc(N2CCOCC2)c2sc(CN3CCN(CC4CC4)CC3)cc2n1 (10 µM)
0: all assays above

Cc1c(Cl)cccc1S(=O)(=O)Nc1nc(NCCc2ccccc2)nc2c1CN(Cc1ccccc1)CC2 (2.5 µM)
0: all assays above

CCCCCc1ccc(/C=C/[C@H](O)[C@@H](CO)NC)cc1 [SK1-I (hydrochloride)] (10 µM)
0: all assays above

COc1ccc2c(Oc3ccc4c(C(=O)Nc5ccccc5N)cccc4c3)ccnc2c1 [Chiauranib] (10 µM)
0: all assays above

CCC(=O)Nc1cccc(Oc2nc(Nc3ccc(N4CCN(C)CC4)cc3OC)ncc2Cl)c1 (10 µM)
0: all assays above

Copied from the entries so far (2 entries):
Cc1c(Cl)cccc1S(=O)(=O)Nc1nc(NCCc2ccccc2)nc2c1CN(Cc1ccccc1)CC2 (2.5 µM)
0: all assays above

CCCCCc1ccc(/C=C/[C@H](O)[C@@H](CO)NC)cc1 [SK1-I (hydrochloride)] (10 µM)
0: all assays above

Continued.

O=C1Nc2ccc(CN3C(=O)CSC3=O)cc2/C1=C/c1cc(CN2CCOCC2)c[nH]1 (10 µM)
0: all assays above

Cc1ccc(C(=O)NC2CC2)cc1-n1ncc(C(=O)c2cccc(C#N)c2)c1N [Acumapimod] (10 µM)
0: all assays above

Cc1cccc(COc2cccc(/C=C3\C(=O)NN(c4ccccc4)C3=O)c2)c1 (10 µM)
0: all assays above

COc1cc(F)ccc1-c1ncnc(Nc2cccc(C[S@](C)(=N)=O)c2)n1 [Atuveciclib] (2.5 µM)
2: MAPK4
3: LMTK2
0: all other assays above

CC(C)[C@H](CO)Nc1nc(Nc2cccc(Cl)c2)c2ncn(C(C)C)c2n1 [Purvalanol A] (10 µM)
0: all assays above

N[C@@H]1CCCN(c2c(/C=C3\SC(=O)NC3=O)cccc2-c2ccccc2)C1 (10 µM)
0: all assays above

C=CC(=O)Nc1cc(Nc2nccc(-c3cn(C)c4ccccc34)n2)c(OC)cc1OCCN(C)C [Rezivertinib] (2.5 µM)
0: all assays above

O=C1CC[C@H](NC(=O)Cc2ccccc2)C(=O)N1 [Antineoplaston A10] (10 µM)
0: all assays above

Cn1ncc(NC(=O)c2nc(-c3c(F)cccc3F)sc2N)c1N1CC[C@@H](N)[C@H](F)CC1 (10 µM)
0: all assays above

C=CC(=O)N1CCC[C@@H](n2nc(-c3ccc(Oc4ccccc4)cc3)c3c(N)n[nH]c(=O)c32)C1 [BTK inhibitor 17] (10 µM)
1: MKNK1
0: all other assays above

CC(C)CCN1c2nc(Nc3cc(F)c(O)c(F)c3)ncc2N(C)C(=O)C1C (stereo not given) (2.5 µM)
0: all assays above

COc1cc(-c2cc(-c3ccc(N4CCNCC4)cc3)cnc2C)cc(OC)c1OC (10 µM)
0: all assays above

c1nc2c(NC3CCCCC3)nc(Nc3ccc(N4CCOCC4)cc3)nc2[nH]1 [Reversine] (10 µM)
0: all assays above

C=CC(=O)N1CC[C@@H](Oc2nc(Nc3ccc(N4CCC(N5CCN(C)CC5)CC4)cc3)c(C(N)=O)nc2CC)C1 [Naquotinib (mesylate)] (2.5 µM)
0: all assays above

CCCn1/c(=N/C(=O)c2cccc(C(N)=O)c2)[nH]c2ccccc21 [Takinib] (10 µM)
0: all assays above

CC(C)Oc1ccc(F)c(-c2cnc(N)c(C(=O)Nc3cnccc3N3CCC[C@@H](C(=O)O)C3)n2)c1 (2 µM)
3: LMTK2
0: all other assays above

C=C1CCC[C@]2(C)C=C3OC(=O)C(C)=C3C[C@@H]12 [Atractylenolide I] (10 µM)
0: all assays above

CN(C)c1ccc(-c2nc3ncc(Cl)c(N4CCN(CC(=O)Nc5nccs5)CC4)c3[nH]2)cc1 (2 µM)
0: all assays above

COc1cc2nccc(Oc3ccc(NC(=O)c4cn(C(C)C)c(=O)n(-c5ccc(F)cc5)c4=O)cc3F)c2cc1OC (0.5 µM)
0: all assays above

Cc1cc(C(=O)Nc2nc3cccc(Cl)c3n2[C@@H]2CCCCN(C(=O)/C=C/CN(C)C)C2)ccn1 [Nazartinib] (10 µM)
0: all assays above

Cn1c(CNc2cccc(C(=O)NCc3ccccc3C(F)(F)F)c2)nnc1-c1ccncc1 (10 µM)
0: all assays above
